What all share (experiment): DAPPL (digital affinity profiling via proximity ligation, sequencing)
Details in all cases: 10 mM Tris-HCl pH 7.5, 50 mM NaCl, 1 mM DTT, 4% glycerol, room temperature, 30 min; GST-TFs on glutathione beads, 16-mer random dsDNA library, 0.1% …; high values mean tight binding; double strand, one strand shown; scale: fold enrichment (6-mer frequency, TF over GST control)

The chains behind the UniProt entries cited, without tags or fusion partners. Where a name states a change or a piece, a line headed by the entry shows the natural chain unless it says otherwise.
UniProt O43186: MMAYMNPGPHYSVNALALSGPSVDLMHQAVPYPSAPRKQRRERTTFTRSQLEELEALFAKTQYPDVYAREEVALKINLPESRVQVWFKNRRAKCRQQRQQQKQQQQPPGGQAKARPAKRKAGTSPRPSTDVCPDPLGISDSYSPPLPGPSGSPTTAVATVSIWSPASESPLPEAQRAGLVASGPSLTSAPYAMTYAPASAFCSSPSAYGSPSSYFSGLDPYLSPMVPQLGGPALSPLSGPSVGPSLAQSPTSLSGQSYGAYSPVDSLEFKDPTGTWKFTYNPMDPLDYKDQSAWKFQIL

One test concerns the target T1, FEV (UniProt Q99581).
T1 sequence: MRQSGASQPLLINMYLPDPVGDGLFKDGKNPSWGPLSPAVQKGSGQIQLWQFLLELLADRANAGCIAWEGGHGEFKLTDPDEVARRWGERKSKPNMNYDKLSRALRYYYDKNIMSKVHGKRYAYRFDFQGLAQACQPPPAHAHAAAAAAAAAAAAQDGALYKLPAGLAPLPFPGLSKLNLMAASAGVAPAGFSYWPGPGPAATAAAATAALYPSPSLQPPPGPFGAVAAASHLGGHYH

The target in a further test is CRX (UniProt O43186).
In another test the target is T2, ELF5 (UniProt Q9UKW6-2).
T2 sequence: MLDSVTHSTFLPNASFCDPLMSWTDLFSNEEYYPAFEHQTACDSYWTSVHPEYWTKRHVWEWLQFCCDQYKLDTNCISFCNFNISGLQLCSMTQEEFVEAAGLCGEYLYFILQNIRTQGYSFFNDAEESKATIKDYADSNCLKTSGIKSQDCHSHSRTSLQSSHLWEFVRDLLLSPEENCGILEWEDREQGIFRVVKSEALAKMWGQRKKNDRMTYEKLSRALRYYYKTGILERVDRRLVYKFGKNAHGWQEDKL

Only a part is listed here, and it is no random draw. At the low end of the ranking the order means little.

For AACGAG, the binding signal with FEV is 0.758; with CRX, 0.709; with ELF5 it was 0.776.
Regarding AGGGAG, the binding signal with FEV came to 0.345; with CRX it was 0.31; with ELF5, 0.344.
In the same order, the values of AGGTGA are 0.537, 0.476 and 0.513.
In the same order, the values of GGGGGC are 0.582, 0.468 and 0.581.
For the sequence TCGGTG, the binding signal with FEV is 0.514; with CRX, 0.443; with ELF5, 0.509.
In the same order, the values of TGGCGG are 0.803, 0.573 and 0.753.
In the same order, the values of GGCCGA are 0.747, 0.723 and 0.684.
In the same order, the values of AGTCTG are 0.563, 0.551 and 0.592.
On to GAGTAT, for which the figures for the binding signal with FEV, in the test with CRX and with ELF5 were 0.575, 0.644 and 0.569, respectively.
The corresponding values for CAAGGC are 0.91, 0.75 and 0.819.
In the same order, the values of ACGCAA are 0.924, 0.804 and 0.823.
The corresponding values for AGGGAC are 0.806, 0.61 and 0.722.
For GCGGTC, the binding signal with FEV is 0.634; with CRX, 0.462; with ELF5, 0.602.
As to TGAGGG, the binding signal worked out at 0.643 in the test with FEV, 0.568 with CRX and 0.618 with ELF5.
In the case of CGTGGA, the binding signal is 0.537 with FEV, 0.562 with CRX and 0.554 with ELF5.
The corresponding values for AGAGGT are 0.75, 0.779 and 0.828.
The corresponding values for GCCGGG are 0.386, 0.293 and 0.412.
The corresponding values for TGAGCA are 0.874, 0.803 and 0.711.
ACGGGT: the results for the binding signal with FEV, with CRX and with ELF5 were 0.932, 0.777 and 0.868, respectively.
In the same order, the values of GGCCAG are 0.468, 0.366 and 0.402.
In the same order, the values of CGTTAG are 0.752, 0.778 and 0.805.
In the same order, the values of GTCGTT are 0.698, 0.554 and 0.741.
As for AGGACA, the binding signal with FEV was 0.854; with CRX, 0.649; in the test with ELF5, 0.904.
The corresponding values for TCGTGT are 0.717, 0.718 and 0.757.
The corresponding values for GCTTGA are 0.85, 0.921 and 0.864.
The corresponding values for GGACCA are 0.736, 0.53 and 0.765.
For the sequence TGGAGC, the binding signal with FEV was 0.625; with CRX, 0.561; in the test with ELF5, 0.621.
The corresponding values for AGTAGA are 0.731, 0.756 and 0.75.
On to GAGTCA, for which the binding signal in the test with FEV was found to be 0.266; with CRX it was 0.24; with ELF5 it was 0.271.
GTCATC: the binding signal with FEV came to 0.842; with CRX, 0.662; in the test with ELF5, 0.898.
Regarding GGAGTC, the values for the binding signal with FEV, with CRX and in the test with ELF5 were 0.211, 0.171 and 0.204, respectively.
The corresponding values for GCGGGG are 0.45, 0.395 and 0.427.
The corresponding values for ACAGTG are 0.485, 0.403 and 0.469.
In the same order, the values of GATTGA are 0.875, 1.11 and 0.786.
In the case of AGTCTA, the binding signal with FEV stood at 0.676; with CRX, 0.79; in the test with ELF5 it was 0.731.
In the same order, the values of GATGTG are 0.998, 0.646 and 0.935.
The corresponding values for GGGAGC are 0.401, 0.331 and 0.363.
Consider CGGTGC, for which the figures for the binding signal in the test with FEV, with CRX and with ELF5 were 0.741, 0.507 and 0.656, respectively.
In the same order, the values of GAGGGT are 0.528, 0.462 and 0.502.
Regarding GGAATC, the binding signal with FEV is 0.721; in the test with CRX, 0.755; with ELF5, 0.682.
In the same order, the values of GGAACG are 0.622, 0.46 and 0.652.
The corresponding values for TGGGGA are 0.749, 0.85 and 0.847.
The corresponding values for AGAGAG are 0.51, 0.481 and 0.501.
In the case of ACAGTA, the binding signal with FEV was 0.851; with CRX it was 0.82; with ELF5, 0.808.
The corresponding values for GGCATG are 0.858, 0.616 and 0.812.
The corresponding values for CCGTTG are 0.831, 0.693 and 0.881.
The corresponding values for TGCAGG are 0.969, 0.812 and 0.991.
In the case of CGTAGG, the results for the binding signal with FEV, with CRX and with ELF5 were 0.633, 0.556 and 0.622, respectively.
In the same order, the values of TTGGAC are 0.947, 0.863 and 0.908.
In the same order, the values of ACCAGG are 0.699, 0.514 and 0.866.
The corresponding values for CAGGGG are 0.573, 0.495 and 0.506.
For GCAGGA, the binding signal stood at 0.832 with FEV, 0.601 in the test with CRX and 0.885 in the test with ELF5.
The corresponding values for GGCACA are 0.83, 0.59 and 0.761.
As for GACCAG, the binding signal is 0.61 with FEV, 0.537 with CRX and 0.583 with ELF5.
In the same order, the values of GGAGAG are 0.256, 0.231 and 0.239.
In the same order, the values of GGGTGC are 0.723, 0.502 and 0.777.
In the same order, the values of AGGCGT are 0.467, 0.469 and 0.499.
Regarding GCGGTT, the binding signal was found to be 0.732 with FEV, 0.689 with CRX and 0.723 with ELF5.
The corresponding values for AGGGCA are 0.858, 0.677 and 0.789.
The corresponding values for GAGTGG are 0.583, 0.518 and 0.582.
In the same order, the values of TACCGT are 0.644, 0.67 and 0.713.
Regarding GACGAA, the binding signal is 0.863 in the test with FEV, 0.752 in the test with CRX and 0.856 with ELF5.
In the same order, the values of GCTGGA are 0.842, 0.884 and 0.781.
In the same order, the values of CACGTG are 0.61, 0.515 and 0.569.
Regarding GTGTGG, the binding signal was 0.641 with FEV, 0.5 in the test with CRX and 0.641 with ELF5.
With GTGTCG, the binding signal with FEV is 0.559; with CRX it was 0.386; in the test with ELF5, 0.62.
In the same order, the values of ACGTGC are 0.635, 0.557 and 0.637.
The corresponding values for ACGGGG are 0.658, 0.581 and 0.672.
In the same order, the values of CGGGCG are 0.46, 0.307 and 0.376.
As to AGGCCT, the binding signal with FEV was 0.952; in the test with CRX, 1.07; in the test with ELF5, 0.93.
The corresponding values for GGAGCT are 0.572, 0.615 and 0.532.
The corresponding values for CGGGTA are 0.771, 0.692 and 0.915.
For ACGCAG, the binding signal was 0.78 with FEV, 0.647 with CRX and 0.767 in the test with ELF5.
For the sequence CGCATC, the binding signal came to 0.936 with FEV, 0.659 with CRX and 0.894 in the test with ELF5.
In the case of GGCCAT, the binding signal with FEV turned out to be 0.845; in the test with CRX it was 0.7; with ELF5 it was 0.793.
In the same order, the values of ATGTCG are 0.576, 0.486 and 0.674.
The corresponding values for GAGAAG are 0.661, 0.698 and 0.721.
In the same order, the values of GTCCGT are 0.504, 0.372 and 0.536.
Regarding GCGTGG, the figures for the binding signal with FEV, with CRX and with ELF5 were 0.505, 0.433 and 0.543, respectively.
In the same order, the values of GCGTGT are 0.529, 0.43 and 0.588.
In the same order, the values of AAGACG are 0.748, 0.868 and 0.789.
The corresponding values for GGCGCA are 0.599, 0.447 and 0.537.
With GGAGAT, the results for the binding signal with FEV, in the test with CRX and with ELF5 were 0.29, 0.394 and 0.288, respectively.
As to AGTCAT, the binding signal stood at 0.573 with FEV, 0.5 in the test with CRX and 0.63 in the test with ELF5.
